These are yes or no findings as the source states them, for the method shown. A result given as binding can be weak or reduced; the word gives no strength. Where a sequence is shown, tags or fusion partners need not be part of it.
Target: SsgA, bacterial two-hybrid (BACTH) fusion
Test: two-hybrid; bacterial two-hybrid (BACTH) in E. coli BTH101

binding: binds
B1: SsgB, wild type, bacterial two-hybrid (BACTH) fusion (protein, UniProt Q9L268 1-137)
chain: MNTTVSCELHLRLVVSSESSLPVPAGLRYDTADPYAVHATFHTGAEETVEWVFARDLLAEGLHRPTGTGDVRVWPSRSHGQGVVCIALSSPEGEALLEAPARALESFLKRTDAAVPPGTEHRHFDLDQELSHILAES

Reference: PMC8061694, “Ectopic positioning of the cell division plane is associated with single amino acid substitutions in the FtsZ-recruiting SsgB in Streptomyces” (Open Biology, 2021)
